Measurements from publication PMC7966362.

Each binder was assayed against FLAG-tagged L-IRBIT wild type (full length) (assay: co-IP; HEK 293T cells transfected with tagged constructs; lysis buffer 10 mM HEPES pH 7.4, 100 mM NaCl, 2 mM EDTA, 0.1% Triton X-100, 10 mM sodium fluoride; antibodies and Protein G overnight at 4 °C; immunoblot).

binding | Binder
binds | GFP-tagged AE2 lacking aa 76–198 (protein, UniProt P13808) MSSAPRRPASGADSLHTPEPESLSPGTPGFPEQEEDELRTLGVERFEEILQEAGSRGGEEPGRSYGEEDFEYHRQMVAVASATAGGDDGGAAGRPLTKAQPGHRSYNLQERRRIGSMTGVEQALLPRVPTDESEAQTLATADLDLMKSHRFEDVPGVRRHLVRKNAKGSTQAAREGREPGPTPRARPRAPHKPHEVFVELNELLLDKNQEPQWRETARWIKFEEDVEEETERWGKPHVASLSFRSLLELRRTLAHGAVLLDLDQQTLPGVAHQVVEQMVISDQIKAEDRANVLRALLLKHSHPSDEKEFSFPRNISAGSLGSLLGHHHAQGTESDPHVTEPLIGGVPETRLEVDRERELPPPAPPAGITRSKSKHELKLLEKIPENAEATVVLVGCVEFLSRPTMAFVRLREAVELDAVLEVPVPVRFLFLLLGPSSANMDYHEIGRSISTLMSDKQFHEAAYLADERDDLLTAINAFLDCSVVLPPSEVQGEELLRSVAHFQRQMLKKREEQGRLLPPGAGLEPKSAQDKALLQMVEVAGAAEDDPLRRTGRPFGGLIRDVRRRYPHYLSDFRDALDPQCLAAVIFIYFAALSPAITFGGLLGEKTKDLIGVSELIMSTALQGVVFCLLGAQPLLVIGFSGPLLVFEEAFFSFCSSNELEYLVGRVWIGFWLVFLALLMVALEGSFLVRFVSRFTQEIFAFLISLIFIYETFYKLIKIFQEHPLHGCSGSNDSEAGSSSSSNMTWATTILVPDNSSASGQSGQEKPRGQPNTALLSLVLMAGTFFIAFFLRKFKNSRFFPGRIRRVIGDFGVPIAILIMVLVDYSIEDTYTQKLSVPSGFSVTAPDKRGWVINPLGEKTPFPVWMMVASLLPAVLVFILIFMETQITTLIISKKERMLQKGSGFHLDLLLIVAMGGICALFGLPWLAAATVRSVTHANALTVMSKAVAPGDKPKIQEVKEQRVTGLLVALLVGLSMVIGDLLRQIPLAVLFGIFLYMGVTSLNGIQFYERLHLLLMPPKHHPDVTYVKKVRTMRMHLFTALQLLCLALLWAVMSTAASLAFPFILILTVPLRMVVLTRIFTEREMKCLDANEAEPVFDECEGVDEYNEMPMPV
binds | HA-tagged AE2 wild type (full length, mouse) (protein, UniProt P13808 1-1237) MSSAPRRPASGADSLHTPEPESLSPGTPGFPEQEEDELRTLGVERFEEILQEAGSRGGEEPGRSYGEEDFEYHRQSSHHIHHPLSTHLPPDARRRKTPQGPGRKPRRRPGASPTGETPTIEEGEEDEEEASEAEGFRAPPQQPSPATTPSAVQFFLQEDEGAERKPERTSPSPPTQTPHQEAAPRASKGAQTGTLVEEMVAVASATAGGDDGGAAGRPLTKAQPGHRSYNLQERRRIGSMTGVEQALLPRVPTDESEAQTLATADLDLMKSHRFEDVPGVRRHLVRKNAKGSTQAAREGREPGPTPRARPRAPHKPHEVFVELNELLLDKNQEPQWRETARWIKFEEDVEEETERWGKPHVASLSFRSLLELRRTLAHGAVLLDLDQQTLPGVAHQVVEQMVISDQIKAEDRANVLRALLLKHSHPSDEKEFSFPRNISAGSLGSLLGHHHAQGTESDPHVTEPLIGGVPETRLEVDRERELPPPAPPAGITRSKSKHELKLLEKIPENAEATVVLVGCVEFLSRPTMAFVRLREAVELDAVLEVPVPVRFLFLLLGPSSANMDYHEIGRSISTLMSDKQFHEAAYLADERDDLLTAINAFLDCSVVLPPSEVQGEELLRSVAHFQRQMLKKREEQGRLLPPGAGLEPKSAQDKALLQMVEVAGAAEDDPLRRTGRPFGGLIRDVRRRYPHYLSDFRDALDPQCLAAVIFIYFAALSPAITFGGLLGEKTKDLIGVSELIMSTALQGVVFCLLGAQPLLVIGFSGPLLVFEEAFFSFCSSNELEYLVGRVWIGFWLVFLALLMVALEGSFLVRFVSRFTQEIFAFLISLIFIYETFYKLIKIFQEHPLHGCSGSNDSEAGSSSSSNMTWATTILVPDNSSASGQSGQEKPRGQPNTALLSLVLMAGTFFIAFFLRKFKNSRFFPGRIRRVIGDFGVPIAILIMVLVDYSIEDTYTQKLSVPSGFSVTAPDKRGWVINPLGEKTPFPVWMMVASLLPAVLVFILIFMETQITTLIISKKERMLQKGSGFHLDLLLIVAMGGICALFGLPWLAAATVRSVTHANALTVMSKAVAPGDKPKIQEVKEQRVTGLLVALLVGLSMVIGDLLRQIPLAVLFGIFLYMGVTSLNGIQFYERLHLLLMPPKHHPDVTYVKKVRTMRMHLFTALQLLCLALLWAVMSTAASLAFPFILILTVPLRMVVLTRIFTEREMKCLDANEAEPVFDECEGVDEYNEMPMPV
binds | GFP-tagged AE2 wild type (protein, UniProt P13808 1-1237) MSSAPRRPASGADSLHTPEPESLSPGTPGFPEQEEDELRTLGVERFEEILQEAGSRGGEEPGRSYGEEDFEYHRQSSHHIHHPLSTHLPPDARRRKTPQGPGRKPRRRPGASPTGETPTIEEGEEDEEEASEAEGFRAPPQQPSPATTPSAVQFFLQEDEGAERKPERTSPSPPTQTPHQEAAPRASKGAQTGTLVEEMVAVASATAGGDDGGAAGRPLTKAQPGHRSYNLQERRRIGSMTGVEQALLPRVPTDESEAQTLATADLDLMKSHRFEDVPGVRRHLVRKNAKGSTQAAREGREPGPTPRARPRAPHKPHEVFVELNELLLDKNQEPQWRETARWIKFEEDVEEETERWGKPHVASLSFRSLLELRRTLAHGAVLLDLDQQTLPGVAHQVVEQMVISDQIKAEDRANVLRALLLKHSHPSDEKEFSFPRNISAGSLGSLLGHHHAQGTESDPHVTEPLIGGVPETRLEVDRERELPPPAPPAGITRSKSKHELKLLEKIPENAEATVVLVGCVEFLSRPTMAFVRLREAVELDAVLEVPVPVRFLFLLLGPSSANMDYHEIGRSISTLMSDKQFHEAAYLADERDDLLTAINAFLDCSVVLPPSEVQGEELLRSVAHFQRQMLKKREEQGRLLPPGAGLEPKSAQDKALLQMVEVAGAAEDDPLRRTGRPFGGLIRDVRRRYPHYLSDFRDALDPQCLAAVIFIYFAALSPAITFGGLLGEKTKDLIGVSELIMSTALQGVVFCLLGAQPLLVIGFSGPLLVFEEAFFSFCSSNELEYLVGRVWIGFWLVFLALLMVALEGSFLVRFVSRFTQEIFAFLISLIFIYETFYKLIKIFQEHPLHGCSGSNDSEAGSSSSSNMTWATTILVPDNSSASGQSGQEKPRGQPNTALLSLVLMAGTFFIAFFLRKFKNSRFFPGRIRRVIGDFGVPIAILIMVLVDYSIEDTYTQKLSVPSGFSVTAPDKRGWVINPLGEKTPFPVWMMVASLLPAVLVFILIFMETQITTLIISKKERMLQKGSGFHLDLLLIVAMGGICALFGLPWLAAATVRSVTHANALTVMSKAVAPGDKPKIQEVKEQRVTGLLVALLVGLSMVIGDLLRQIPLAVLFGIFLYMGVTSLNGIQFYERLHLLLMPPKHHPDVTYVKKVRTMRMHLFTALQLLCLALLWAVMSTAASLAFPFILILTVPLRMVVLTRIFTEREMKCLDANEAEPVFDECEGVDEYNEMPMPV

Binder | binding
GFP-tagged AE2 lacking aa 199–524 (protein, UniProt P13808) MSSAPRRPASGADSLHTPEPESLSPGTPGFPEQEEDELRTLGVERFEEILQEAGSRGGEEPGRSYGEEDFEYHRQSSHHIHHPLSTHLPPDARRRKTPQGPGRKPRRRPGASPTGETPTIEEGEEDEEEASEAEGFRAPPQQPSPATTPSAVQFFLQEDEGAERKPERTSPSPPTQTPHQEAAPRASKGAQTGTLVEERPTMAFVRLREAVELDAVLEVPVPVRFLFLLLGPSSANMDYHEIGRSISTLMSDKQFHEAAYLADERDDLLTAINAFLDCSVVLPPSEVQGEELLRSVAHFQRQMLKKREEQGRLLPPGAGLEPKSAQDKALLQMVEVAGAAEDDPLRRTGRPFGGLIRDVRRRYPHYLSDFRDALDPQCLAAVIFIYFAALSPAITFGGLLGEKTKDLIGVSELIMSTALQGVVFCLLGAQPLLVIGFSGPLLVFEEAFFSFCSSNELEYLVGRVWIGFWLVFLALLMVALEGSFLVRFVSRFTQEIFAFLISLIFIYETFYKLIKIFQEHPLHGCSGSNDSEAGSSSSSNMTWATTILVPDNSSASGQSGQEKPRGQPNTALLSLVLMAGTFFIAFFLRKFKNSRFFPGRIRRVIGDFGVPIAILIMVLVDYSIEDTYTQKLSVPSGFSVTAPDKRGWVINPLGEKTPFPVWMMVASLLPAVLVFILIFMETQITTLIISKKERMLQKGSGFHLDLLLIVAMGGICALFGLPWLAAATVRSVTHANALTVMSKAVAPGDKPKIQEVKEQRVTGLLVALLVGLSMVIGDLLRQIPLAVLFGIFLYMGVTSLNGIQFYERLHLLLMPPKHHPDVTYVKKVRTMRMHLFTALQLLCLALLWAVMSTAASLAFPFILILTVPLRMVVLTRIFTEREMKCLDANEAEPVFDECEGVDEYNEMPMPV | binds

These are yes or no findings as the source states them, for the method shown. Binding seen in cells or lysates may run through a third protein. Binding can be weak; no strength is given. Tags and fused reporters may be left off the sequences shown.
